According to patent EP4825838A1, “CATIONIC LIPID AND USE THEREOF” (dated 2026):
Structures were worked out from names or drawings and are uncertain.

Columns and labels:
[1] = tested on: female Balb/c mice; test: mRNA delivery efficiency after intramuscular administration of luciferase mRNA lipid nanoparticles (Test Example 2); conditions: LNP of the compound, intramuscular 0.1 mg/kg, 24 h after administration
[2] = tested on: female Balb/c mice; test: Hepatocyte growth factor protein expression in muscle after intramuscular injection of HGF mRNA lipid nanoparticle compositions, ELISA (Test Example 2); conditions: LNP of the compound, gastrocnemius muscle injection 0.05 mg/kg, muscle at injection site after 6 h
[3] = tested on: female Balb/c mice; test: mRNA delivery efficiency and tissue distribution after in vivo tail vein injection of luciferase mRNA lipid nanoparticle compositions (Test Example 1); conditions: for Mean fluorescence intensity (p/s) 24 h / Mean fluorescence intensity (p/s) 48 h: LNP of the compound, luciferase mRNA, tail vein injection 0.5 mg/kg, whole mouse IVIS; for Mean fluorescence intensity (p/s) 24 h: 24 h after administration; for Mean fluorescence intensity (p/s) 48 h: 48 h after administration
[4] = Characterization of lipid nanoparticle compositions (size, PDI, encapsulation efficiency); conditions: for Size (nm): lipid nanoparticles of the compound with DSPC, cholesterol, DMG-PEG 50:10:38.5:1.5, luciferase mRNA; for Size (nm) / PDI: dynamic light scattering; for Encapsulation efficiency (%) / PDI: lipid nanoparticles of the compound, luciferase mRNA; for Encapsulation efficiency (%): Quant-iT RiboGreen RNA assay kit
[5] = tested on: female Balb/c mice; test: mRNA delivery efficiency after in vivo tail vein injection of luciferase mRNA lipid nanoparticle compositions (Test Example 6); conditions: LNP of the compound, tail vein injection 0.5 mg/kg; for Mean fluorescence intensity (p/s) 24 h: 24 h after administration; for Mean fluorescence intensity (p/s) 48 h: 48 h after administration
[6] = tested on: HuH-7 cells (human liver cancer cells); test: mRNA delivery efficiency on cells, luciferase reporter assay (Test Example 5); conditions: LNP of the compound with luciferase mRNA 100 ng/well, after 24 h, microplate reader
[7] = Freeze-drying of lipid particle compositions: particle size, PDI, encapsulation efficiency before and after (Test Example 4); conditions: for Rate of change in particle size after freeze-drying (%): after vs before freeze-drying; for Particle size before freeze-drying (nm): lipid nanoparticles in 20 mM Tris, pH 7.5, 8% sucrose; for Encapsulation efficiency after freeze-drying and reconstitution (%) / Particle size after freeze-drying and reconstitution (nm): reconstitution with 0.6 mL water for injection
[8] = tested on: HEK 293 cells; test: mRNA delivery efficiency on cells, luciferase reporter assay (Test Example 5); conditions: LNP of the compound with luciferase mRNA 100 ng/well, after 24 h, microplate reader
[9] = tested on: interleukin 6 (IL-6); test: In vivo safety: IL-6 concentration in muscle tissue after intramuscular injection of lipid nanoparticle compositions, ELISA (Test Example 3); conditions: LNP of the compound, hepatocyte growth factor mRNA, intramuscular 0.05 mg/kg, muscle tissue at injection site after 6 h
[10] = tail vein 0.5 mg/kg, 24-hour mice dissected, heart
[11] = tail vein 0.5 mg/kg, 24-hour mice dissected, kidney
[12] = tail vein 0.5 mg/kg, 24-hour mice dissected, liver
[13] = tail vein 0.5 mg/kg, 24-hour mice dissected, lung
[14] = tail vein 0.5 mg/kg, 24-hour mice dissected, spleen

Row | Structure (SMILES) | Mean fluorescence intensity (p/s) [1] [p/s] | Mean protein expression level [2] [ng/mg] | Mean fluorescence intensity (p/s) 24 h ([3]; 0.5 mg/kg) [p/s] | Mean fluorescence intensity (p/s) 48 h ([3]; 0.5 mg/kg) [p/s] | Size (nm) [4] [nm] | Encapsulation efficiency (%) [4] [%] | PDI [4] | Mean fluorescence intensity (p/s) 24 h [5] [p/s] | Mean fluorescence intensity (p/s) 48 h [5] [p/s] | Mean fluorescence intensity [6] | Encapsulation efficiency before freeze-drying (%) [7] [%] | PDI after freeze-drying [7] | PDI before freeze-drying [7] | Rate of change in particle size after freeze-drying (%) [7] [%] | Particle size before freeze-drying (nm) [7] [nm] | Encapsulation efficiency after freeze-drying and reconstitution (%) [7] [%] | Particle size after freeze-drying and reconstitution (nm) [7] [nm] | Mean fluorescence intensity [8] | other results
1 | CCCCCCCCC(CCCCCCCC)OC(=O)CCCCCCCN(CCCCCOCC(=O)OC(CCCCCCCC)CCCCCCCC)CCCNc1c(NC)c(=O)c1=O | 6.97E+08 | 8.39 | 1.25E+10 | 1.51E+09 | 63.3 | 99 | 0.10 |  |  |  |  |  |  |  |  |  |  |  | Mean fluorescence intensity (p/s) ([1]; listed as compound 2): significantly higher; Fluorescence intensity (p/s) Heart [3, 10]: 9.52E+05 p/s; Fluorescence intensity proportion (%) Heart [3, 10]: 0.03%; Fluorescence intensity (p/s) Kidney [3, 11]: 3.48E+06 p/s; Fluorescence intensity proportion (%) Kidney [3, 11]: 0.10%; Fluorescence intensity (p/s) Liver [3, 12]: 3.12E+09 p/s; Fluorescence intensity proportion (%) Liver [3, 12]: 95.76%; Fluorescence intensity proportion (%) Liver ([3]; tail vein 0.5 mg/kg, 24-hour mice dissected, liver, listed as compound 2): > 95%; Fluorescence intensity (p/s) Lung [3, 13]: 1.39E+07 p/s; Fluorescence intensity proportion (%) Lung [3, 13]: 0.43%; Fluorescence intensity (p/s) Spleen [3, 14]: 1.20E+08 p/s; Fluorescence intensity proportion (%) Spleen [3, 14]: 3.68%
2 | CCCCCCCCC(CC)OC(=O)CCCCCCCN(CCCCCCCC(=O)OC(CCCCCCCC)CCCCCCCC)CCCNc1c(NC)c(=O)c1=O (stereo not drawn) | 1.90E+08 |  |  |  | 64.8 |  |  | 2.02E+09 | 2.84E+08 | 4.18E+07 |  |  |  |  |  |  |  |  | Mean fluorescence intensity (p/s) 24 h [3]: 3.98E+09 p/s; Mean fluorescence intensity (p/s) 48 h [3]: 3.11E+08 p/s
3 | CCCCCCCCC(CC)OC(=O)CCCCCCCN(CCCNc1c(NC)c(=O)c1=O)CCCOCCCC(=O)OC(CCCCCCCC)CCCCCCCC (stereo not drawn) |  |  |  |  | 64.4 | 98 | 0.06 | 5.25E+08 | 7.26E+07 | 4.54E+07 | 97.9 | 0.08 | 0.10 | 43.5 | 64.4 | 80.5 | 92.4 | 1.56E+07 | Encapsulation efficiency after freeze-drying and reconstitution (%) ([7]; listed as compound 5): lower than 85%; Mean fluorescence intensity ([6]; listed as compound 5): not significantly different
4 | CCCCCCCCC(CC)OC(=O)CCCCCCCN(CCCCCOCC(=O)OC(CCCCCCCC)CCCCCCCC)CCCNc1c(NC)c(=O)c1=O (stereo not drawn) | 7.98E+08 | 9.73 | 7.67E+09 | 1.11E+09 | 69.6 | 98 | 0.08 |  |  | 6.48E+07 | 99.5 | 0.08 | 0.04 | 16.4 | 67.0 | 92.4 | 78.0 | 2.23E+07 | particle-size distributions (PDI) ([7]; before and after freeze-drying): less than 0.1; Encapsulation efficiency after freeze-drying and reconstitution (%) ([7]; listed as compound 1): higher than 90%; Mean fluorescence intensity (p/s) ([1]; listed as compound 1): significantly higher; Tissue IL-6 concentration [9]: 164.2 pg/mg; Tissue IL-6 concentration (pg/mg) ([9]; listed as compound 1): significantly lower; Mean fluorescence intensity ([6]; listed as compound 1): significantly higher
5 | CCCCCCCCC(CC)OC(=O)CCCCCCCN(CCCCCCCC(=O)OC(CCCCCCCC)CCCCCCCC)C1CCC(Nc2c(NC)c(=O)c2=O)CC1 (stereo not drawn) |  |  | 6.58E+09 | 6.61E+08 | 64.2 | 99 | 0.10 |  |  |  |  |  |  |  |  |  |  |  | 
6 | CCCCCCCCC(CC)OC(=O)CCCCCCCN(CCCNc1c(NC)c(=O)c1=O)CCOCCCCC(=O)OC(CCCCCCCC)CCCCCCCC (stereo not drawn) |  |  |  |  | 71.9 | 98 | 0.16 | 1.27E+09 | 1.31E+08 | 5.19E+07 | 98.5 | 0.24 | 0.16 | 38.2 | 71.9 | 84.1 | 99.4 | 1.71E+07 | Encapsulation efficiency after freeze-drying and reconstitution (%) ([7]; listed as compound 6): lower than 85%
